From paper PMC6259099

Target: T1, Siah1 (UniProt Q920M9)
T1 sequence: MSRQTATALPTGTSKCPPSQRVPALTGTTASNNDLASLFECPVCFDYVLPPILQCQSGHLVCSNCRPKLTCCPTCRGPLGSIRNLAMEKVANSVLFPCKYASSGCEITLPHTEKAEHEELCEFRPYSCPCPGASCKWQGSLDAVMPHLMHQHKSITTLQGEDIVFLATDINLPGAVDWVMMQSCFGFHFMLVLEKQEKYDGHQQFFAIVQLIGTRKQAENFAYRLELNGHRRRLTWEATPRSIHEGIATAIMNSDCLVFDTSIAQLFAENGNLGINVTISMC
Experiment: co-IP; lysates of CSM14.1 cells transiently expressing BAG1 or BAGΔC; lysis buffer 50 mM TRIS-HCl pH 7.4, 150 mM NaCl, 1% Triton-X 100; affinity beads and pulldown antibody against Siah1, 4 °C overnight; immunoblot

binding	Substance
no binding	BAGΔC, C-terminal deletion mutant of BAG1 (domain or fragment)
binds	Bcl-2-associated athanogene-1 (BAG1), full length

No constants are given. Whether binding was seen depends on the method and setting. In cells and extracts the contact can be indirect. Binding calls can cover weak binding; strength is not graded here.
